# Data: PubChem BioAssay AID1347076 (National Center for Advancing Translational Sciences (NCATS), 2019)
# Out of some 400,000 compounds screened, about 13,000 (3.2%) were called active. Inconclusive means that the source gave no clear call. Such entries were picked first, then a sample of the others. Calls follow the shape of the dose curve; as a rule, active = well fitted cell-killing curve with a large enough effect; inconclusive = small, poorly fitted or top-dose-only effect, or effect the other way; inactive = flat fitted curve, though single readings scatter. Where the call is inconclusive, the potency comes from a doubtful curve fit.
# Assay: qHTS assay for MDR1-selective chemotherapeutics: Primary screen using the drug-selected MDR subline cells KB-V1; also: nearly all actives have a fitted effect of over 60% in size
# Conditions: KB-V1 MDR cells viability, CellTiter-Glo, 72 h; activity change, negative = cytotoxicity: at 46.1 µM (top of the series)
# Summary of the method: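 Cytotoxicity toward P-gp-expressing KB-V1 cells was determined as loss of CellTiter-Glo luminescence after 72 h at 37 degrees C. Compounds were tested in quantitative HTS format across a concentration range, with curves fitted to normalized data.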
# % is scaled to controls: 0 for no effect and ±100 for the full control effect; potency is read from the fitted curve at half-maximal effect.
SMILES,Potency,"activity change, negative = cytotoxicity"
Cc1ccc2c(c1)C(=O)C(=O)N2Cc1ccc(Cl)cc1,"inconclusive: 18.4 µM [cytotoxic, single point]",–
COc1ccccc1CNC(=O)C(=O)NCC1OCCCN1S(=O)(=O)c1ccc(F)cc1C (stereo unspecified),"inconclusive: 4.61 µM [cytotoxic, partial curve]",–
COc1ccc2c(c1)c1ncn(CCN3CCCC3)c(=O)c1n2C,active: 8.2 µM,–
O=C(NCC1CCCCC1)C1CCCN(C(=O)NC2CCCCC2)C1 (stereo unspecified),active: 4.11 µM,–
O=C(Nc1ncn[nH]1)c1ccc(Cl)c(S(=O)(=O)N2CCCCCC2)c1,active: 20.6 µM,–
N#Cc1c(N2CCOCC2)nsc1-c1ccccc1,"inconclusive: 5.8 µM [cytotoxic, partial curve, poor fit]",–
Cc1cccc(N2CCN(C(=O)c3cccc(S(=O)(=O)N4CCc5ccccc5C4)c3)CC2C)c1 (stereo unspecified),active: 2.59 µM,–
Cc1cccc2nc(CSc3ccc(Cl)cc3)cn12,"inconclusive: 25.9 µM [cytotoxic, partial curve, poor fit]",–
CN(Cc1ccccc1)S(=O)(=O)c1cc(Br)cc2c1N(C(=O)C1CC1)CC2,inactive,–
CNS(=O)(=O)c1ccc(CCC(=O)N2CCN(c3ccccc3OC)CC2)cc1,inactive,–
Cc1cccc(NC(=O)CCCCCn2c(=O)[nH]c3ccsc3c2=O)c1,inactive,–
Cc1nn(Cc2ccccc2)c(C)c1C(=O)N1CCN(CC(=O)Nc2ccc(F)cc2)CC1,–,inconclusive: 18.8%
O=C(Cc1ccccc1)N1CCC(C(=O)N2CCN(c3ccc(F)cc3)CC2)CC1,"inconclusive: 23.1 µM [cytotoxic, partial curve, poor fit]",–
COCC(=O)Oc1cc(-c2ccc(C)cc2C)c(OC(=O)COC)c(-c2ccc(C)cc2C)c1,"inconclusive: 20.6 µM [cytotoxic, single point]",–
CSc1nsc(SC)c1C(=O)N1CCN(S(=O)(=O)c2ccc(C)cc2)C1C(C)C (stereo unspecified),"inconclusive: 8.2 µM [cytotoxic, partial curve]",–
O=C(c1ccc(N2CCCC2)c([N+](=O)[O-])c1)N1CCN(CCO)CC1,inactive,–
COc1ccc(C(=O)NC(=S)NNC(=O)c2cnccn2)cc1OC,"inconclusive: 1.3 µM [cytotoxic, full curve, poor fit]",–
C[C@H](NC(=O)c1ccc(Cl)cc1)C(=O)NCCc1ccc(S(N)(=O)=O)cc1,"inconclusive: 14.6 µM [rising, partial curve, poor fit]",–
NCCCC[C@H]1CNC(=S)N1CCc1cc(C(F)(F)F)cc(C(F)(F)F)c1,inactive,–
CCCCCN(C(=O)CCC(=O)OCC(=O)N(CC)C1CCCCC1)c1c(N)n(CCCC)c(=O)[nH]c1=O,inactive,–
Cc1ccc(NC(=O)Cn2c(=O)oc3cc(S(=O)(=O)N4CCC(C)CC4)ccc32)cc1C,"inconclusive: 20.6 µM [cytotoxic, partial curve]",–
O=C(Nc1nnc(COc2ccccc2)s1)Nc1ccccc1F,"inconclusive: 20.6 µM [rising, single point]",–
Cc1cc(OCC(=O)OC(C)C(=O)NC2CC2)c(C(C)C)cc1Cl (stereo unspecified),"inconclusive: 10.3 µM [rising, partial curve]",–
COc1ccc(CC(=O)Oc2ccc(C(C)(C)C)cc2)cc1S(=O)(=O)N1CCOCC1,inactive,–

SMILES,Potency,"activity change, negative = cytotoxicity"
O=S(=O)(NCCCCCNS(=O)(=O)c1ccccc1)c1ccccc1,"inconclusive: 29.1 µM [cytotoxic, single point]",–
Cn1c(=O)cc(SCC(=O)NCCN2CCN(c3ccccc3F)CC2)c2cc(Cl)ccc21,inactive,–
CC(C)(C)c1cc(C(=O)NNc2cc(C(F)(F)F)ccc2Cl)n(Cc2ccccc2)n1,"inconclusive: 23.1 µM [cytotoxic, single point]",–
CCC(Cc1ccccc1)n1c(=S)[nH]c2ccccc2c1=O (stereo unspecified),"inconclusive: 14.6 µM [cytotoxic, single point]",–
COc1cc(NC(=O)c2ccccc2)c(OC)cc1NC(=O)CN1C(=O)NC2(CCCCC2C)C1=O (stereo unspecified),"inconclusive: 1.46 µM [rising, single point]",–
Cc1cccc(NC(=O)c2cccc(N3C(=O)C4C5CCC(C5)C4C3=O)c2)c1C (stereo unspecified),active: 8.2 µM,–
COc1cc(NC(=O)c2cc3c(Cl)nc4ccccc4c3s2)cc(OC)c1OC,inactive,–
CCN(CC)C(=O)Cn1c(C)c(/C=C/c2cc[n+](C)cc2)c2ccccc21,inactive,–
CC(C)n1cc(CN2CCC(C(=O)Nc3ccc(Oc4ccccc4F)cc3)CC2)cn1,inactive,–
c1nc(N2CCOCC2)c2c3c(sc2n1)CCCC3,"inconclusive: 18.4 µM [cytotoxic, partial curve]",–
COc1cc(C(O)P(=O)(OC(C)C)OC(C)C)cc(OC)c1OC (stereo unspecified),"inconclusive: 25.9 µM [rising, partial curve, poor fit]",–
CC1CCCC=CC2CC(OC(=O)CN(C)C)CC2C(O)C=CC(=O)O1 (stereo unspecified),"inconclusive: 0.058 µM [cytotoxic, full curve, poor fit]",–
CC(=O)NC(=S)NNC(=O)CCc1ccccc1,inactive,–
CCc1ccc(/C=C2\SC(N3CCCC3)=NC2=O)cc1,"inconclusive: 23.1 µM [cytotoxic, single point]",–
CCCN(C(=O)COC(=O)c1nc2nc(C)cc(C)n2n1)C1CCS(=O)(=O)C1 (stereo unspecified),"inconclusive: 29.1 µM [rising, single point]",–
CC(C)N(C(=O)CSc1nnc(-c2cc3ccccc3cc2O)n1Cc1ccco1)C(C)C,active: 3.26 µM,–
CCOC(=O)c1[nH]ncc1CN1CCCC(C(=O)c2cccc3ccccc23)C1 (stereo unspecified),"inconclusive: 3.66 µM [rising, full curve]",–
CCOc1ccccc1CNS(=O)(=O)c1ccc2[nH]c(=O)ccc2c1,"inconclusive: 5.8 µM [rising, partial curve, poor fit]",–
Cc1ccc(C)c(CN2C(=O)N(c3cc(Cl)ccc3C)S(=O)(=O)c3ccccc32)c1,inactive,–
Cc1ccc(C)c(Cn2c(-c3cccs3)nc3ccccc32)c1,inactive,–
CC(=O)Nc1cccc(OCc2ccc([N+](=O)[O-])cc2)c1,"inconclusive: 29.1 µM [cytotoxic, single point]",–
Cc1nn(Cc2ccccc2)c(Cl)c1C(=O)NC(C)(C)C,"inconclusive: 23.1 µM [cytotoxic, single point]",–
COc1ccc(-c2nnn(CC(=O)N(Cc3ccccc3Cl)C(C(=O)NCC3CCCO3)c3ccco3)n2)cc1OC (stereo unspecified),"inconclusive: 9.2 µM [cytotoxic, partial curve, poor fit]",–
Cc1ccc(-c2nnc(SCC#N)n2N)cc1,"inconclusive: 29.1 µM [rising, single point]",–

# As entered above:
# Cc1cccc(NC(=O)c2cccc(N3C(=O)C4C5CCC(C5)C4C3=O)c2)c1C (stereo unspecified) – Potency: active: 8.2 µM
# Cc1ccc(NC(=O)Cn2c(=O)oc3cc(S(=O)(=O)N4CCC(C)CC4)ccc32)cc1C – Potency: inconclusive: 20.6 µM [cytotoxic, partial curve]
# CCCN(C(=O)COC(=O)c1nc2nc(C)cc(C)n2n1)C1CCS(=O)(=O)C1 (stereo unspecified) – Potency: inconclusive: 29.1 µM [rising, single point]
# Cc1ccc(C)c(CN2C(=O)N(c3cc(Cl)ccc3C)S(=O)(=O)c3ccccc32)c1 – Potency: inactive
# CC(=O)Nc1cccc(OCc2ccc([N+](=O)[O-])cc2)c1 – Potency: inconclusive: 29.1 µM [cytotoxic, single point]

# Additional results

SMILES,Potency,"activity change, negative = cytotoxicity"
CC(C)(C)c1cc(Cl)ccc1OCCOCCN1CCCC1,inactive,–
CCOc1ccc(C(C)NC(=S)NC2CCCCC2)cc1OCC (stereo unspecified),"inconclusive: 13 µM [cytotoxic, partial curve, poor fit]",–
O=C(CN1C(=O)CCc2cc(S(=O)(=O)N3CCOCC3)ccc21)NCc1ccccc1,inactive,–
Cc1ccc(CC(=O)O/N=C(\N)c2ccncc2)cc1,"inconclusive: 9.2 µM [rising, partial curve, poor fit]",–
Cc1ccc(S(=O)(=O)N(C)C)cc1NC(=O)CN1C(=O)NC2(CCCCCCC2)C1=O,inactive,–
Cc1cc(C)n(-c2nncc(-c3ccccc3)n2)n1,inactive,–
CC(C)Oc1ccc(C(=O)NCCCNC(=O)c2cccnc2)cc1,inactive,–
CN(Cc1ccccc1)C(=O)c1ccc(Nc2nc(C(N)Cc3ccccc3)cs2)nc1 (stereo unspecified),inactive,–
COc1ccc(NC(=O)CN(C)C(=O)c2csc3c2CCCC3)cc1,"inconclusive: 29.1 µM [cytotoxic, single point]",–
O=C(Nc1ccc(Cl)cc1)Nc1ccc2c(c1)N1CCN=C1S2,"inconclusive: 10.3 µM [cytotoxic, partial curve, poor fit]",–
CCCCOc1ccc(C(=O)C(CN2CCOCC2)c2ccccc2)cc1 (stereo unspecified),"inconclusive: 20.6 µM [cytotoxic, single point]",–
Cc1ccc(-c2nc3sc(CCNC(=O)c4ccc(C)c(C)c4)c(C)n3n2)cc1,inactive,–
O=S(=O)(Nc1ccc(F)cc1)N1CCOCC1,"inconclusive: 29.1 µM [rising, single point]",–
CCC(=O)NC(c1ccco1)c1cc(Cl)c2cccnc2c1O (stereo unspecified),"inconclusive: 3.66 µM [cytotoxic, full curve, poor fit]",–
CCOC(=O)C1(Cc2cccc(Cl)c2)CCCN(C(=O)c2c(CC)noc2C)C1 (stereo unspecified),"inconclusive: 0.731 µM [cytotoxic, full curve]",–
CC(C)OCCCNS(=O)(=O)c1ccc2c(c1)OCCO2,"inconclusive: 16.4 µM [cytotoxic, partial curve]",–
COC(=O)c1c(NC(=O)CN2CCC3(O)CCCCC3C2c2ccc(F)cc2)sc(C)c1C (stereo unspecified),active: 16.4 µM,–
CC(/C=N/NC(=O)c1n[nH]c2c1CCC2)=C\c1ccccc1,active: 0.206 µM,–
S=c1nn[nH]c2ccccc12,inactive,–
CCCCCCCCCC(=O)N[C@H](CN1CCOCC1)[C@H](O)c1ccccc1,"inconclusive: 6.51 µM [cytotoxic, partial curve]",–
COc1ccc(C(=O)n2nc(-c3ccco3)nc2NCc2cccs2)cc1OC,inactive,–
CCc1ccccc1NC(=O)N(C)CCc1c(C)nn(C)c1C,"inconclusive: 8.2 µM [cytotoxic, partial curve, poor fit]",–
O=[N+]([O-])c1ccc(N(CC(O)CN2CCCCC2)S(=O)(=O)c2ccccc2)cc1 (stereo unspecified),"inconclusive: 14.6 µM [rising, partial curve, poor fit]",–
